Experimental data from PubChem BioAssay AID1487 (National Center for Advancing Translational Sciences (NCATS), 2009).
The list shows a part of the results. These are further read-outs of the screen, such as a control signal, another cell line or another target. No call is given for them. Compounds called inactive in the main read-out are mostly missing here. The note in brackets gives the kind of curve behind each potency; many fits are weak.

Assay: qHTS Assay for Modulators of Lamin A Splicing
Details: HeLa LMNA splicing GFP/RFP minigene ratio, 48 h
Summary of the method: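 S3 HeLa cells stably expressing lamin A-EGFP splicing minigene plus DsRed2, 600 cells/well, 48 h compound exposure at 37C. Laser-scanning cytometry; analysed as GFP (500-530 nm)/RFP (575-640 nm) total intensity ratio; 0.5% DMSO vehicle.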

[1] = measured here: GFP splicing reporter channel
[2] = measured here: RFP viability control channel

Compound	AC50 [1]	AC50 [2]
COc1ccc(CCC(=O)Nc2cc(Cl)ccc2N2CCN(C)CC2)cc1	35.5 µM [rising, single point]	–
Cc1cc(NC(=O)COCc2cc(-c3ccc(F)cc3)on2)ccc1Br	–	35.5 µM [falling, partial curve, poor fit]
CCSc1cc(N2CCOCC2)nc(-c2ccccc2)n1	14.1 µM [rising, single point]	–
Cc1ccc(CSc2nnc(-c3cccc(S(=O)(=O)N4CCOCC4)c3)n2CC(C)C)cc1	14.1 µM [rising, single point]	25.1 µM [rising, single point]
Cc1ccc(C)c(N2CCN(C(=O)CCCN3C(=S)NC(C)(C)CC3C)CC2)c1 (configuration not stated)	5.01 µM [rising, partial curve]	8.91 µM [rising, partial curve]
CCOc1ccc(C2=Nn3c(nnc3-c3ccc(OC)cc3)SC2)cc1	–	4.47 µM [rising, partial curve]
CCCn1c2ccccc2c2cnn(CC(=O)N3CCN(c4ccccc4F)CC3)c(=O)c21	0.112 µM [rising, single point]	–
CC(C)CCn1c(SCc2ccc(Cl)cc2)nc2c1c(=O)[nH]c(=O)n2C	3.16 µM [rising, full curve]	2.51 µM [rising, single point]
COC(=O)C1=C(C)NC(C)=C(C(=O)OCC(C)C)C1c1ccccc1[N+](=O)[O-] (configuration not stated)	–	7.94 µM [rising, partial curve, poor fit]
CCOc1ccccc1NC(=O)CN(c1ccc(C)cc1)S(=O)(=O)c1c(C)noc1C	–	14.1 µM [rising, single point]
CCOC(=O)N1CCN(C(=O)CSCC(=O)Nc2nc(-c3ccc4c(c3)OCO4)cs2)CC1	12.6 µM [rising, single point]	15.8 µM [rising, single point]
O=C(C1CCCCN1S(=O)(=O)c1ccccc1)N1CCN(C(c2ccccc2)c2ccccc2)CC1 (configuration not stated)	7.94 µM [rising, partial curve]	11.2 µM [rising, partial curve]
COc1ccc(OC)c(CNS(=O)(=O)c2ccc3[nH]c4c(c3c2)CCCCC4)c1	–	35.5 µM [rising, single point]
O=C(CSc1nc2ccc(Cl)cc2[nH]1)NC1CCCc2ccccc21 (configuration not stated)	31.6 µM [rising, single point]	35.5 µM [rising, single point]
COc1cccc(CN2CCN(Cc3nc(-c4cccc(F)c4F)oc3C)CC2=O)c1	1.26 µM [falling, full curve]	–
O=C(CCSc1nc2ccccc2s1)N/N=C/c1c(O)ccc2ccccc12	–	10 µM [rising, partial curve]
Cc1onc(-c2ccccc2)c1C(=O)N/N=C/c1cccc(O)c1	–	10 µM [rising, single point]
Cc1ccc(NC(=O)CSc2nccn2Cc2ccco2)cc1Cl	–	8.91 µM [falling, partial curve]

Compound	AC50 [1]	AC50 [2]
COc1ccc(/C=N/OCC(=O)Nc2nc3ccccc3s2)cc1OC	–	35.5 µM [rising, single point]
CCOC(=O)Cc1cc(=O)[nH]c(/N=C(\N)Nc2ccc(C)c(C)c2)n1	–	14.1 µM [falling, partial curve, poor fit]
CCCSc1ncnc2sc(C)c(C)c12	–	35.5 µM [falling, single point]
Cc1ccc(-n2ncc3c(N4CCC(C(N)=O)CC4)ncnc32)cc1	7.08 µM [falling, full curve, poor fit]	5.01 µM [falling, full curve]
CCC1CN(C(=O)Nc2cccc3c2CCCC3)c2cc(Cl)ccc2O1 (configuration not stated)	–	11.2 µM [rising, single point]
CC1(C)CC(Nc2ccc(Nc3ccccc3)cc2)CC(C)(C)N1	10 µM [falling, partial curve, poor fit]	35.5 µM [falling, partial curve]
CCn1c(N)c(C(=O)N2CCOCC2)sc1=S	–	0.0126 µM [falling, full curve, poor fit]
Fc1ccc(NC(=S)N2CCN(C/C=C/c3ccccc3)CC2)c(F)c1	0.794 µM [falling, full curve, poor fit]	0.891 µM [falling, partial curve, poor fit]
Cn1c(NC(=O)c2cccc(C(F)(F)F)c2)cc(=O)n(C)c1=O	–	11.2 µM [rising, partial curve]
CN1CCc2nc(SCC(=O)Nc3ccc(F)cc3)c(C#N)cc2C1	–	31.6 µM [rising, single point]
CCOC(=O)c1sc(=S)n(Cc2ccccc2)c1N	14.1 µM [rising, partial curve, poor fit]	20 µM [rising, single point]
COc1c2ccoc2nc2c(OC)cccc12	2 µM [rising, partial curve, poor fit]	–
CCCCNC(=O)/C=C/c1ccc(S(=O)(=O)Nc2ccc(OC)cc2)cc1	5.01 µM [falling, full curve, poor fit]	–
Cc1occc1C(=O)N/N=C/c1ccccn1	22.4 µM [falling, single point]	–
O=C(Nc1ccc(Oc2ccc(S(=O)(=O)N3CCOCC3)cn2)cc1)c1ccco1	11.2 µM [rising, partial curve, poor fit]	15.8 µM [rising, single point]
CCOc1ccc(-c2cn(-c3ccc(C)cc3)c(SCC(=O)Nc3ccc(C)cc3)n2)cc1	20 µM [rising, partial curve, poor fit]	11.2 µM [rising, partial curve, poor fit]
CCN(CC)C(=O)c1sc2c(c1C)c(=O)n(-c1ccc(Cl)c(Cl)c1)c(=O)n2Cc1cc(=O)n2ccccc2n1	–	0.00794 µM [rising, full curve, poor fit]

One compound at a time (already shown).
Cc1occc1C(=O)N/N=C/c1ccccn1 is entered as AC50 [1]: 22.4 µM [falling, single point]
CCOc1ccc(-c2cn(-c3ccc(C)cc3)c(SCC(=O)Nc3ccc(C)cc3)n2)cc1 is entered as AC50 [1]: 20 µM [rising, partial curve, poor fit]; AC50 [2]: 11.2 µM [rising, partial curve, poor fit]
